{
  "sequences": {"note": "Protein sequences, listed by entry. Tags and fused reporters are not part of them. Lines headed by an entry give the natural chain unless they say otherwise; changes in a name come on top. Chains listed by the source or under a name are the forms on record and can include a tag or linker. Residues count along the entry.", "heat shock protein 5 (HSPA5) (mouse (endogenous in peritoneal macrophages)) (P20029, residues 20-655)": "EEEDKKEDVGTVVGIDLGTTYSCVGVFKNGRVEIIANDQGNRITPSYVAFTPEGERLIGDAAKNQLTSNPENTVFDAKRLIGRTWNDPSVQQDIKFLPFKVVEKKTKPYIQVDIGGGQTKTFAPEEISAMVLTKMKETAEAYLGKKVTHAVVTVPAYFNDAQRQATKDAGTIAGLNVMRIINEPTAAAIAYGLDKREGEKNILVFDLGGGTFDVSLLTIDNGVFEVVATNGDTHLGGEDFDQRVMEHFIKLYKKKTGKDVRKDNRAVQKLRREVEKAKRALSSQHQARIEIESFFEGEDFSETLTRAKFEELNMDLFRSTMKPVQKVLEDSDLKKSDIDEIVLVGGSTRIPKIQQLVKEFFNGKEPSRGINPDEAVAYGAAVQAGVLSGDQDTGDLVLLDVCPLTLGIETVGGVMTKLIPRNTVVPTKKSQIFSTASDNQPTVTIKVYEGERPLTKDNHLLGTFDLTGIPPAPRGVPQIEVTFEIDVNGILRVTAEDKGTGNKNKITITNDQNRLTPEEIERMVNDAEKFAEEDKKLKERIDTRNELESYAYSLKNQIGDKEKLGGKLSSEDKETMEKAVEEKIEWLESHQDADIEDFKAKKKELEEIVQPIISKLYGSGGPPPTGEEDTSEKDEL", "HSPA5 protein bearing a K327A mutation (P20029, form named)": "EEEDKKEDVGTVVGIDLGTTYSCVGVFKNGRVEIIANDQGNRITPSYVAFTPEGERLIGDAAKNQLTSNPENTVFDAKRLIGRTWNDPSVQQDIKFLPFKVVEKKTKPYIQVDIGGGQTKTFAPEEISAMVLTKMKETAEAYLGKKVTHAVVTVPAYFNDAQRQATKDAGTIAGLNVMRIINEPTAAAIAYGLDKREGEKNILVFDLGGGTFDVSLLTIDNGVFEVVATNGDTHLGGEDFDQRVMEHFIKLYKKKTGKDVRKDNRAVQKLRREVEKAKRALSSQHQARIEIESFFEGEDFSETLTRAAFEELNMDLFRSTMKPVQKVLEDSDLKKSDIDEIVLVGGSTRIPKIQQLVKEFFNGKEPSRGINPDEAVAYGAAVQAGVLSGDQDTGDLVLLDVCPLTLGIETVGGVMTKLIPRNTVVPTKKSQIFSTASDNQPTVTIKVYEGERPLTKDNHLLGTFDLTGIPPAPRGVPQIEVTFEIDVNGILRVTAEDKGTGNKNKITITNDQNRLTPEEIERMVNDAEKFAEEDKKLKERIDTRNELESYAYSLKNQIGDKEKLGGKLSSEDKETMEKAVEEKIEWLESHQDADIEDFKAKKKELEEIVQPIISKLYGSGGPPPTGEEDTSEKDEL"},
  "source": "paper PMC10656488",
  "binders": {"B1": {"name": "SCNN1B protein (in vitro ubiquitination system, ITC and SPR) (protein, UniProt Q9WU38 1-638)", "chain": "MPVKKYLLKCLHRLQKGPGYTYKELLVWYCNNTNTHGPKRIICEGPKKKAMWFLLTLLFACLVCWQWGVFIQTYLSWEVSVSLSMGFKTMNFPAVTVCNSSPFQYSKVKHLLKDLDELMEAVLEKILAPEASHSNTTRTLNFTIWNHTPLVLIDERNPDHPVVLNLFGDSHNSSNPAPGSTCNAQGCKVAMRLCSANGTVCTLRNFTSATQAVTEWYILQATNIFSQVLPQDLVGMGYAPDRIILACLFGTEPCSHRNFTPIFYPDYGNCYIFNWGMTEETLPSANPGTEFGLKLILDIGQEDYVPFLASTAGARLMLHEQRTYPFIREEGIYAMAGTETSIGVLVDKLQRKGEPYSPCTMNGSDVAIKNLYSVYNTTYSIQACLHSCFQDHMIRNCSCGHYLYPLPEGEKYCNNRDFPDWAYCYLNLQMSVTQRETCLSMCKESCNDTQYKMTISMADWPSEASEDWILHVLSQERDQSSNITLSRKGIVKLNIYFQEFNYRTIEESPANNIVWLLSNLGGQFGFWMGGSVLCLIEFGEIIIDFIWITIIKLVASCKGLRRRRPQAPYTGPPPTVAELVEAHTNFGFQPDTTSCRPHGEVYPDQQTLPIPGTPPPNYDSLRLQPLDTMESDSEVEAI"}, "B2": {"name": "SEPTIN2 (SEPT2) (protein, UniProt P42208 1-361)", "chain": "MSKQQPTQFINPETPGYVGFANLPNQVHRKSVKKGFEFTLMVVGESGLGKSTLINSLFLTDLYPERIIPGAAEKIERTVQIEASTVEIEERGVKLRLTVVDTPGYGDAINCRDCFKTIISYIDEQFERYLHDESGLNRRHIIDNRVHCCFYFISPFGHGLKPLDVAFMKAIHNKVNIVPVIAKADTLTLKERERLKKRILDEIEEHSIKIYHLPDAESDEDEDFKEQTRLLKASIPFSVVGSNQLIEAKGKKVRGRLYPWGVVEVENPEHNDFLKLRTMLITHMQDLQEVTQDLHYENFRSERLKRGGRKVENEDMNKDQILLEKEAELRRMQEMIARMQAQMQMQMQGGDSDSGALGQHV"}, "B3": {"name": "HA- and Myc-tagged SEPT2 (protein, UniProt P42208 1-361)", "chain": "B2 chain"}, "B4": {"name": "SEPT6, Q9R1T4 1-434 (protein)", "chain": "MAAADIARQVGEDCRTVPLAGHVGFDSLPDQLVNKSVSQGFCFNILCVGETGLGKSTLMDTLFNTKFEGEPATHTQPGVQLQSNTYDLQESNVGLKLTIVSTVGFGDQINKEDSYKPIVEFIDAQFEAYLQEELKIRRVLHSYHDSRIHVCLYFIAPTGHSLKSLDLVTMKKLDSKVNIIPVIAKSDAISKSELAKFKIKITSELVSNGVQIYQFPTDDESVSEINGTMNAHLPFAVVGSTEEVKIGNKMMRARQYPWGTVQVENEAHCDFVKLREMLIRVNMEDLREQTHARHYELYRRCKLEEMGFKDTDPDSKPFSLQETYEAKRNEFLGELQKKEEEMRQMFVQRVKEKEAELKEAEKELHEKFDRLKKLHQEEKKKLEDKKKCLDEEMNAFKQRKAAAELLQSQGSQAGGSQTLKRDKEKKNNPWLCIE"}, "B5": {"name": "SEPT7 (protein, UniProt O55131 1-436)", "chain": "MSVSARSAAAEERSVNCGTMAQPKNLEGYVGFANLPNQVYRKSVKRGFEFTLMVVGESGLGKSTLINSLFLTDLYSPEYPGPSHRIKKTVQVEQSKVLIKEGGVQLLLTIVDTPGFGDAVDNSNCWQPVIDYIDSKFEDYLNAESRVNRRQMPDNRVQCCLYFIAPSGHGLKPLDIEFMKRLHEKVNIIPLIAKADTLTPEECQQFKKQIMKEIQEHKIKIYEFPETDDEEENKLVKKIKDRLPLAVVGSNTIIEVNGKRVRGRQYPWGVAEVENGEHCDFTILRNMLIRTHMQDLKDVTNNVHYENYRSRKLAAVTYNGVDNNKNKGQLTKSPLAQMEEERREHVAKMKKMEMEMEQVFEMKVKEKVQKLKDSEAELQRRHEQMKKNLEAQHKELEEKRRQFEEEKANWEAQQRILEQQNSSRTLEKNKKKGKIF"}, "B6": {"name": "SEPT9 (protein, UniProt Q80UG5 1-583)", "chain": "MKKSYSGVTRTSSGRLRRLADPTGPALKRSFEVEEIEPPNSTPPRRVQTPLLRATVASSSQKFQDLGVKNSEPAARLVDSLSQRSPKPSLRRVELAGAKAPEPMSRRTEISIDISSKQVESTASAAGPSRFGLKRAEVLGHKTPEPVPRRTEITIVKPQESVLRRVETPASKIPEGSAVPATDAAPKRVEIQVPKPAEAPNCPLPSQTLENSEAPMSQLQSRLEPRPSVAEVPYRNQEDSEVTPSCVGDMADNPRDAMLKQAPASRNEKAPMEFGYVGIDSILEQMRRKAMKQGFEFNIMVVGQSGLGKSTLINTLFKSKISRKSVQPTSEERIPKTIEIKSITHDIEEKGVRMKLTVIDTPGFGDHINNENCWQPIMKFINDQYEKYLQEEVNINRKKRIPDTRVHCCLYFIPATGHSLRPLDIEFMKRLSKVVNIVPVIAKADTLTLEERVYFKQRITADLLSNGIDVYPQKEFDEDAEDRLVNEKFREMIPFAVVGSDHEYQVNGKRILGRKTKWGTIEVENTTHCEFAYLRDLLIRTHMQNIKDITSNIHFEAYRVKRLNEGNSAMANGIEKEPEAQEM"}, "B7": {"name": "sodium channel epithelial 1 subunit beta (SCNN1B) (protein, UniProt Q9WU38 1-638)", "chain": "B1 chain"}},
  "key": {"[1]": {"target": "HSPA5 protein bearing a K327A mutation (UniProt P20029)", "test": "in vitro ubiquitination system, interaction analysed by immunoblots; in vitro ubiquitination system; with or without SEPT2 (Supplementary Fig. 8g)"}, "[2]": {"target": "HSPA5 protein (wild type, in vitro systems, ITC and SPR) (UniProt P20029)", "test": "in vitro ubiquitination system, interaction analysed by immunoblots; in vitro ubiquitination system; with or without SEPT2 (Supplementary Fig. 8g)"}, "[3]": {"target": "HSPA5 protein (wild type, in vitro systems, ITC and SPR) (UniProt P20029)", "test": "ITC; ITC-binding curve; repeated three times independently; conditions not shown; both purified"}, "[4]": {"target": "HSPA5 protein (wild type, in vitro systems, ITC and SPR) (UniProt P20029)", "test": "SPR; ATAT1 protein or SCNN1B protein injected over HSPA5 protein; repeated three times independently; both purified"}, "[5]": {"target": "T1, SEPTIN2 (SEPT2) (mouse (endogenous in peritoneal macrophages)) (UniProt P42208)", "T1 sequence": "B2 chain", "test": "native gel or EMSA; native PAGE (Supplementary Fig. 9a); sample not shown"}, "HA- and Myc-tagged SEPT2": {"target": "HA- and Myc-tagged SEPT2 (UniProt P42208)", "test": "co-IP; WT iBMDMs cotransfected with HA- and Myc-tagged SEPT2"}, "[6]": {"target": "T2, SEPTIN2 (SEPT2) (mouse (endogenous in peritoneal macrophages)), P42208", "T2 chain": "B2 chain", "test": "co-IP; coimmunoprecipitations of SEPT2 or against HSPA5 (Supplementary Fig. 9d, e); cells and antibodies not shown", "conditions": "remark: other sources report otherwise"}, "[7]": {"target": "T1, SEPTIN2 (SEPT2) (mouse (endogenous in peritoneal macrophages))", "test": "co-IP; coimmunoprecipitations of SEPT2 or against HSPA5 (Supplementary Fig. 9d, e); cells and antibodies not shown"}, "[8]": {"target": "heat shock protein 5 (HSPA5) (mouse (endogenous in peritoneal macrophages)) (UniProt P20029)", "test": "co-IP"}},
  "note": "No constants are given. Whether binding was seen depends on the method and setting. For some of these results: Binding seen in cells or lysates may run through a third protein. Some binding calls cover weakened binding; strength is not graded here. For some of these results: Tags and fused reporters may be left off the sequences shown.",
  "data": [
    {"binder": "B1", "values": [
      {"measurement": "binding", "setting": "[1]", "value": "binds"},
      {"measurement": "binding", "setting": "[2]", "value": "binds"},
      {"measurement": "binding", "setting": "[3]", "value": "binds weakly"},
      {"measurement": "binding", "setting": "[4]", "value": "binds"}
    ]},
    {"binder": "B2", "values": [
      {"measurement": "binding", "setting": "[5]", "value": "binds"}
    ]},
    {"binder": "B3", "values": [
      {"measurement": "binding", "setting": "HA- and Myc-tagged SEPT2", "value": "binds"}
    ]},
    {"binder": "B4", "values": [
      {"measurement": "binding", "setting": "[6]", "value": "binds"}
    ]},
    {"binder": "B5", "values": [
      {"measurement": "binding", "setting": "[7]", "value": "binds"}
    ]},
    {"binder": "B6", "values": [
      {"measurement": "binding", "setting": "[7]", "value": "binds"}
    ]},
    {"binder": "B7", "values": [
      {"measurement": "binding", "setting": "[8]", "value": "binds"}
    ]}
  ]
}
